At least one compound was matched to its structure with a doubt left.
Tested on: representative gram negative and gram positive bacteria
Assay: protection of mice against bacteria (PD50)
Type: in vivo

COC(=O)N[C@H]1[C@@H](C)O[C@@H](O[C@H]2C/C=C(\C)[C@@H]3C=C[C@@H]4[C@@H](O[C@H]5C[C@@H](O[C@H]6CC(O[C@H]7C[C@H](O)[C@@H](O)[C@H](C)O7)C(O[C@@H]7C[C@@H](O)[C@@H](OC)[C@H](C)O7)[C@H](C)O6)[C@@H](O)[C@H](C)O5)[C@@H](C)C[C@H](C)[C@H]4[C@]3(C)/C(O)=C3\C(=O)O[C@]4(C[C@@H](C)C(CO)=C[C@H]4/C=C/2C)C3=O)C[C@]1(C)[N+](=O)[O-] (some centres unmarked) [Kijanimicin]
oral PD50 (oral, mice): 10 to over 100 | subcutaneous PD50 (subcutaneous): 10 to over 100

— patent publication US4375542A, “Kijanimicin antibiotics and derivatives thereof” (Schering Corporation, priority 1980, dated 1983)
